# This is a selection; strong and weak results do not stand in their true shares. At the low end of the ranking the order means little.
# Protein sequences, listed by entry. Tags and fused reporters are not part of them. Lines headed by an entry give the natural chain unless they say otherwise; changes in a name come on top.
# UniProt O43186: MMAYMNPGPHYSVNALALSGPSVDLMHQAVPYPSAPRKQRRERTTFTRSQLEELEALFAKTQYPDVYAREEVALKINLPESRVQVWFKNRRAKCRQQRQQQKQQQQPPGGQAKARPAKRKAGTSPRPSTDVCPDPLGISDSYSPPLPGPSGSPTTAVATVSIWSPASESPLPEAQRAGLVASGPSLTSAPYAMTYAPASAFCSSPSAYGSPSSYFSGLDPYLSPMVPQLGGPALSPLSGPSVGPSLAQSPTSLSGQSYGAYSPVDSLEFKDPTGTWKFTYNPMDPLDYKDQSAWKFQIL
# Tests used:
# Assay in all cases: DAPPL (digital affinity profiling via proximity ligation, sequencing)
# Conditions in all cases: 10 mM Tris-HCl pH 7.5, 50 mM NaCl, 1 mM DTT, 4% glycerol, room temperature, 30 min; GST-TFs on glutathione beads, 16-mer random dsDNA library, 0.1% …; high values mean tight binding; double strand, one strand shown; scale: fold enrichment (6-mer frequency, TF over GST control)
# FEV = biological target: T1, FEV (UniProt Q99581)
# T1 sequence: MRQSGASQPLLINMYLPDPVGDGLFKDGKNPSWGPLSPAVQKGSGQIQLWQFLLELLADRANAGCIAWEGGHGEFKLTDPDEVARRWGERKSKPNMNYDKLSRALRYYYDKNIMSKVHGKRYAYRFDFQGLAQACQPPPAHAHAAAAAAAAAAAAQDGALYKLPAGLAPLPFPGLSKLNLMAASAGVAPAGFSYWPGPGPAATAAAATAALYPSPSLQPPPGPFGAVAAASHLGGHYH
# CRX = CRX (UniProt O43186)
# ELF5 = biological target: T2, ELF5 (UniProt Q9UKW6-2)
# T2 sequence: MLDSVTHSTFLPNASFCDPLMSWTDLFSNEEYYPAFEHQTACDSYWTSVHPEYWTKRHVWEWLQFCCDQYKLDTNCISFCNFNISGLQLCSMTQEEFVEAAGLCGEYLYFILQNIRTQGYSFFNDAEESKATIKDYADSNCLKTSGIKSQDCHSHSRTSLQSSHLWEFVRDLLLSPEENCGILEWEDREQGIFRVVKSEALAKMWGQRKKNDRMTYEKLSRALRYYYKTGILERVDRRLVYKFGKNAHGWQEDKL
Sequence,binding signal (FEV),binding signal (CRX),binding signal (ELF5)
AGGGGA,0.59,0.596,0.624
ACGTGC,0.635,0.557,0.637
GGGTAG,0.622,0.505,0.653
ACGTGG,0.561,0.508,0.537
GTCGCG,0.641,0.475,0.663
TCAGAG,0.639,0.792,0.7
AGACTG,0.491,0.494,0.498
GCTCGG,0.745,0.669,0.731
TAGGGA,0.783,0.993,0.898
CAGGTT,0.637,0.548,0.636
GGGCGC,0.558,0.438,0.545
GACGGT,0.411,0.331,0.453
GAGATA,0.601,0.793,0.615
GTGGGC,0.727,0.509,0.672
GATAGA,0.769,0.809,0.796
GGAGCA,0.465,0.365,0.458
GGCAAC,0.871,0.576,0.91
CAGCAA,0.93,0.828,0.885
ACGGTC,0.681,0.562,0.717
GGGATA,0.721,1.04,0.86
AGGCCG,0.54,0.44,0.449

Sequence,binding signal (FEV),binding signal (CRX),binding signal (ELF5)
TAGGCG,0.648,0.745,0.653
GGGTCC,0.797,0.554,0.785
GGGATC,0.567,0.875,0.633
GGTCGG,0.272,0.194,0.276
GCCGAG,0.633,0.558,0.572
TCGGTA,0.566,0.564,0.577
GAGGGC,0.594,0.47,0.554
TAGAGT,0.738,0.936,0.761
ATCAGT,0.828,0.96,0.76
GGAGAG,0.256,0.231,0.239
AGATAG,0.784,0.903,0.789
GAGGGA,0.488,0.509,0.53
GGAGCT,0.572,0.615,0.532
GTGAAC,0.859,0.565,0.828
CGTGAA,0.435,0.381,0.459
CCAGTC,0.259,0.239,0.245
AGGCTG,0.632,0.606,0.633
ATGTCG,0.576,0.486,0.674
CGTAGG,0.633,0.556,0.622
GACGTA,0.767,0.586,0.71
GTTGGA,0.485,0.386,0.495

Sequence,binding signal (FEV),binding signal (CRX),binding signal (ELF5)
GTGGGG,0.571,0.489,0.574
CACAGG,0.938,0.641,0.897
AAACGT,0.922,0.792,0.965
GAGTCG,0.22,0.184,0.205
CACGAG,0.799,0.762,0.748
CCAGTT,0.6,0.499,0.609
GGGCGG,0.455,0.276,0.41
CCTAGT,0.843,0.859,0.99
GGACGT,0.676,0.362,0.618
AGTCCG,0.616,0.428,0.638
TTGTCG,0.806,0.758,0.91
AGTTGT,0.756,0.667,0.892
GGCGGC,0.542,0.437,0.494
ACAACG,0.942,0.731,0.889
GTGCGA,0.812,0.668,0.788
GGTGGA,0.541,0.526,0.593
GTGAAT,0.791,0.754,0.817
GGTTCG,0.8,0.649,0.801
GGGCGT,0.462,0.361,0.461
GGCAGT,0.499,0.395,0.521
AGACGC,0.705,0.597,0.649

# Single records, as listed above:
# GGTTCG as listed: binding signal (FEV) = 0.8; binding signal (CRX) = 0.649; binding signal (ELF5) = 0.801
# GGCAAC as listed: binding signal (FEV) = 0.871; binding signal (CRX) = 0.576; binding signal (ELF5) = 0.91
# ACGTGC as listed: binding signal (FEV) = 0.635; binding signal (CRX) = 0.557; binding signal (ELF5) = 0.637

# Going on with the list:

Sequence,binding signal (FEV),binding signal (CRX),binding signal (ELF5)
GGACGA,0.634,0.494,0.652
CAGGAG,0.269,0.218,0.254
AAGGAC,0.892,0.727,0.932
GTGCAG,0.709,0.536,0.7
CGGGAG,0.206,0.163,0.193
CAGACC,0.888,0.602,0.815
GTCAGC,0.731,0.567,0.658
AGTCAG,0.504,0.397,0.501
AAGCCA,0.894,1.12,0.789
AGGGTG,0.721,0.629,0.795
CGGGCC,0.743,0.57,0.692
AGGTGC,0.586,0.528,0.632
CCTGAG,0.816,0.785,0.826
CATGAG,0.637,0.581,0.646
ATCGTA,0.852,0.974,0.819
GTTGAG,0.662,0.587,0.634
TGGCGG,0.803,0.573,0.753
GTGAGT,0.122,0.121,0.119
CGGCCA,0.797,0.591,0.772
AGGAGC,0.382,0.326,0.372
AGAGCG,0.457,0.392,0.427

# Source: publication PMC7862700
